Measurements from paper PMC10589233.
Results are given in words; binding and its absence hold for the method and conditions named. In cells and extracts the contact can be indirect. Some results given as binding are weak or reduced against the parent protein; the word gives no strength. For part of these data: Tags and fused reporters may be left off the sequences shown.

Amino acid sequences for entries named in this document (tags omitted).
UniProt Q8N697: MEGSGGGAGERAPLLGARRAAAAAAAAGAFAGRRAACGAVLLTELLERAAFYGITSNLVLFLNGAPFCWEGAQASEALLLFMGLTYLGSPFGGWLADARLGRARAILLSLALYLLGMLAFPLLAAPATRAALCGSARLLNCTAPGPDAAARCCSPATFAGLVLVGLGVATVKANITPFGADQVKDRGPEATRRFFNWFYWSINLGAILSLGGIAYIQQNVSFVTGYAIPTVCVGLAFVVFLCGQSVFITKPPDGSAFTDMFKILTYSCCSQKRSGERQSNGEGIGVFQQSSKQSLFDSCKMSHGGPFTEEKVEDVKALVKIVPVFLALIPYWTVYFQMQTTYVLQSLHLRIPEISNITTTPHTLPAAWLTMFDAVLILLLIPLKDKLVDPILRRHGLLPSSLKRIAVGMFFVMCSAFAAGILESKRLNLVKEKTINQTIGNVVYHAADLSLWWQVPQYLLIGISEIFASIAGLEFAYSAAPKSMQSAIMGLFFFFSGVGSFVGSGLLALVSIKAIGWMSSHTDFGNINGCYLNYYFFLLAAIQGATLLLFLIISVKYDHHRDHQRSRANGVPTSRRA

Tests used:
[1] = target: StrepHA-tagged wildtype SLC15A4 (human) (UniProt Q8N697); assay: pull-down; StrepTactin beads on lysates of StrepHA-SLC15A4-expressing THP1 cells co-expressing TASL N-terminus-GFP fusions; E1A lysis buffer (50 mM HEPES, 250 mM NaCl, 5 mM EDTA, 1% NP-40, pH 7.4), overnight at 4 °C, western blot
[2] = target: StrepHA-tagged wildtype SLC15A4 (human) (UniProt Q8N697); assay: co-IP; anti-HA agarose IP of StrepHA-tagged SLC15A4 variants from lysates of sgSLC15A4 THP1 cells; E1A lysis buffer (50 mM HEPES, 250 mM NaCl, 5 mM EDTA, 1% NP-40, pH 7.4), overnight at 4 °C, three washes, western blot

binding [1] | binding [2] | Binder
no binding | – | MLSEGYLSGLEY (domain or fragment, UniProt Q9HAI6 1-12) [TASL (1-12) fused to GFP]
– | binds | TASL (protein, UniProt Q9HAI6 1-301) MLSEGYLSGLEYWNDIHWSCASYNEQVAGEKEEETNSVATLSYSSVDETQVRSLYVSCKSSGKFISSVHSRESQHSRSQRVTVLQTNPNPVFESPNLAAVEICRDASRETYLVPSSCKSICKNYNDLQIAGGQVMAINSVTTDFPSESSFEYGPLLKSSEIPLPMEDSISTQPSDFPQKPIQRYSSYWRITSIKEKSSLQMQNPISNAVLNEYLEQKVVELYKQYIMDTVFHDSSPTQILASELIMTSVDQISLQVSREKNLETSKARDIVFSRLLQLMSTEITEISTPSLHISQYSNVNP
binds | – | MLSEGYLSGLEYW (domain or fragment, UniProt Q9HAI6 1-13) [TASL (1-13) fused to GFP]
